Test results from the supplement of paper PMC10849652.
The list shows a part of the results.

Sequences of proteins named here, by UniProt entry; tags and fusion partners are left off. A change or cut given only in a name is not applied to a line headed by its entry.
UniProt O94973, whole entry, looked up: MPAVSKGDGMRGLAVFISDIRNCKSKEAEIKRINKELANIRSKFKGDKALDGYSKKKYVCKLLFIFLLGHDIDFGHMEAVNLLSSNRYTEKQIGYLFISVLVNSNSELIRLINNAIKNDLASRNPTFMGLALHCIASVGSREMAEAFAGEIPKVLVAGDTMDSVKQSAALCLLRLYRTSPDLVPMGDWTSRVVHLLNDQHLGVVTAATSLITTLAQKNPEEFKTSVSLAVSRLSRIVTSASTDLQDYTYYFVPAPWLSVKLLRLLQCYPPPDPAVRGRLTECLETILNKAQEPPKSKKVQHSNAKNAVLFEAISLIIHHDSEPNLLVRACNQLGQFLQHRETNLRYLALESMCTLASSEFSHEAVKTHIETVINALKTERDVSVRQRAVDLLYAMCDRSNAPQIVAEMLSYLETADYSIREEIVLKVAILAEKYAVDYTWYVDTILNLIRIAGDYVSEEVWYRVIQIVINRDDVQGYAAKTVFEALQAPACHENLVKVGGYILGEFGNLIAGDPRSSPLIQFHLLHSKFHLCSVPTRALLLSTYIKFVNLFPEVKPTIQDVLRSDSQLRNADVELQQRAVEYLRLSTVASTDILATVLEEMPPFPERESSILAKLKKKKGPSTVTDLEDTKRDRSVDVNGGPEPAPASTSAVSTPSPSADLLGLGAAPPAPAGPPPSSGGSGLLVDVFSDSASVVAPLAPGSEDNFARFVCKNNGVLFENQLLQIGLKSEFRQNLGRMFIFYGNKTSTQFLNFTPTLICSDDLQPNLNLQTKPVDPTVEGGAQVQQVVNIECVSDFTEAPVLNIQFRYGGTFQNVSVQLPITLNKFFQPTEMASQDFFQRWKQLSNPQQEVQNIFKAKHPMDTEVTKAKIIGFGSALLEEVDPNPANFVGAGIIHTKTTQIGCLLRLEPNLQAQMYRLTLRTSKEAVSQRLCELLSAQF
UniProt P10398: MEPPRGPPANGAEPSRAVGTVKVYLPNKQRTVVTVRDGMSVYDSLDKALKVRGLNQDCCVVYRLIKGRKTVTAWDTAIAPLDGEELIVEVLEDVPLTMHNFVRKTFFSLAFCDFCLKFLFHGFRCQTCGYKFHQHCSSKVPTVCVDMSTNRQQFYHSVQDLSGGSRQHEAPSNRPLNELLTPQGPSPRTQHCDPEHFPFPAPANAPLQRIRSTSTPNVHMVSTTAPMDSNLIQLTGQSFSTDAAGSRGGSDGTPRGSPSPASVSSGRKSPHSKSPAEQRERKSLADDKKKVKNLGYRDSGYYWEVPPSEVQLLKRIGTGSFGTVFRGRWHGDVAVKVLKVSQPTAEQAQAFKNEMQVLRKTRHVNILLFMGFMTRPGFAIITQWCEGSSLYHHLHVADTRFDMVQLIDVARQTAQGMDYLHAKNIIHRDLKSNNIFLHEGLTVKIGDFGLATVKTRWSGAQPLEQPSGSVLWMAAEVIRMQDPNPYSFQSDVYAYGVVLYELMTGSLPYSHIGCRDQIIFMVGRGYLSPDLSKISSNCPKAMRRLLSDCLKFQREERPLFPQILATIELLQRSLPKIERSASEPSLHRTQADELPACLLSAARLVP
UniProt Q9NW15: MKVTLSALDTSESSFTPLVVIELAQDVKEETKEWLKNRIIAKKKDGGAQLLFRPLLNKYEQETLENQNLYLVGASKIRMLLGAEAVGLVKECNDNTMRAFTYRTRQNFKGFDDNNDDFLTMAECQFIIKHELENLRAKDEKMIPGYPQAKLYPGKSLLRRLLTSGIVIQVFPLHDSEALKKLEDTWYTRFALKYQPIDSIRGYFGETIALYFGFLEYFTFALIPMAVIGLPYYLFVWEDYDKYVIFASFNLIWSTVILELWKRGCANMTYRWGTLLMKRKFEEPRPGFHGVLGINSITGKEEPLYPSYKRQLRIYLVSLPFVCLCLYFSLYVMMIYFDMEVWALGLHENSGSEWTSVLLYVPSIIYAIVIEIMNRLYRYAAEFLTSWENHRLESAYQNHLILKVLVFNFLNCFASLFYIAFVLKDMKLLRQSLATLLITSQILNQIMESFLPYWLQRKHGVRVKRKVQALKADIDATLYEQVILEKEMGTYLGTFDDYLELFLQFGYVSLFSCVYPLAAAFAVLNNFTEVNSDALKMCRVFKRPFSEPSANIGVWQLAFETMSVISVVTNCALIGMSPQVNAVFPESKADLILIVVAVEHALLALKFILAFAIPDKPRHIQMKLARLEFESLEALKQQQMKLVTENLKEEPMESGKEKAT
UniProt Q8N6T3: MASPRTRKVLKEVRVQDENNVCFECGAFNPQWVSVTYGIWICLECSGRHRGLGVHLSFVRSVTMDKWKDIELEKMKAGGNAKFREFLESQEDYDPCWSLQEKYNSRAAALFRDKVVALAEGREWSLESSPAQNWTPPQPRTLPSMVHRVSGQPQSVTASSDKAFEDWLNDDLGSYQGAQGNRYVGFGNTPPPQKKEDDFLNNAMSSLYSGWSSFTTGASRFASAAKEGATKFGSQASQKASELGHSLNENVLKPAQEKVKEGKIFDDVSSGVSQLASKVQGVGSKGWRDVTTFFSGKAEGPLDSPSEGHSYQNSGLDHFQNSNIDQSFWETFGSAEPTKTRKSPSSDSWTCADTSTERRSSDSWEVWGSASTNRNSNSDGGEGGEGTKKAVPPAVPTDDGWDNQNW
UniProt Q9H0R1: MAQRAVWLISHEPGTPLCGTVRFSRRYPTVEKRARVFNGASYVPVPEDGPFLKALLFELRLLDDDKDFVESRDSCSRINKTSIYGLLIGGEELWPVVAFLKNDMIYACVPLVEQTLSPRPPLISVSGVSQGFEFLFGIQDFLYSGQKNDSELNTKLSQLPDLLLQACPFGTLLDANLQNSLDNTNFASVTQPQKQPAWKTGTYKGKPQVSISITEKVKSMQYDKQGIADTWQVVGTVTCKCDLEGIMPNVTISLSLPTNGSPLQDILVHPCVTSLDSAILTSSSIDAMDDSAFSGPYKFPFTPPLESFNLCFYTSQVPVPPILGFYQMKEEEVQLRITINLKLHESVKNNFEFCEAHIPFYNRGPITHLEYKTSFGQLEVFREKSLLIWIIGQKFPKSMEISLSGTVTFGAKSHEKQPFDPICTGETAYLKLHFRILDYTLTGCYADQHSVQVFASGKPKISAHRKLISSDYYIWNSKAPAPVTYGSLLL
UniProt Q68EM7: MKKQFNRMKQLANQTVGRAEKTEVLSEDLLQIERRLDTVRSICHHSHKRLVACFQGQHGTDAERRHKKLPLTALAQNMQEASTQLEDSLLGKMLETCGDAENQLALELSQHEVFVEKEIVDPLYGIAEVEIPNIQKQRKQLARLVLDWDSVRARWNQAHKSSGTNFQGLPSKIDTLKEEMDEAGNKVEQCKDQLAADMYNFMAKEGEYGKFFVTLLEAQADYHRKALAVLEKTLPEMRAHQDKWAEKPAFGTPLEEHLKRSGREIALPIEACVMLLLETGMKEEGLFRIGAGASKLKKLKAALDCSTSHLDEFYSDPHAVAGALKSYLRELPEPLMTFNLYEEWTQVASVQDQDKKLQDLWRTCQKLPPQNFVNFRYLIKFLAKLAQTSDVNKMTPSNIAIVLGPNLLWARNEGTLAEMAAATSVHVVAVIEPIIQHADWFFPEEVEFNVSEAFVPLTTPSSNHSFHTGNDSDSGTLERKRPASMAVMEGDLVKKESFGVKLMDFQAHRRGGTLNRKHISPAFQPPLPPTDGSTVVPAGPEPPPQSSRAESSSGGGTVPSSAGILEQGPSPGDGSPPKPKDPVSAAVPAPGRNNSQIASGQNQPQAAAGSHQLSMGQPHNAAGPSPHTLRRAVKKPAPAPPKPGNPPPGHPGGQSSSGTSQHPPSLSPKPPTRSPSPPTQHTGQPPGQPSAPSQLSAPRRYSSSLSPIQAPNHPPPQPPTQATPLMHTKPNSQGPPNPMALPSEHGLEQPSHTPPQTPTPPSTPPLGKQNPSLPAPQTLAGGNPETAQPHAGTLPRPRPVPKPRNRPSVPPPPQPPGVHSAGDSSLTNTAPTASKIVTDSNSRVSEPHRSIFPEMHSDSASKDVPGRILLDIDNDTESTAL
UniProt Q9BZZ5: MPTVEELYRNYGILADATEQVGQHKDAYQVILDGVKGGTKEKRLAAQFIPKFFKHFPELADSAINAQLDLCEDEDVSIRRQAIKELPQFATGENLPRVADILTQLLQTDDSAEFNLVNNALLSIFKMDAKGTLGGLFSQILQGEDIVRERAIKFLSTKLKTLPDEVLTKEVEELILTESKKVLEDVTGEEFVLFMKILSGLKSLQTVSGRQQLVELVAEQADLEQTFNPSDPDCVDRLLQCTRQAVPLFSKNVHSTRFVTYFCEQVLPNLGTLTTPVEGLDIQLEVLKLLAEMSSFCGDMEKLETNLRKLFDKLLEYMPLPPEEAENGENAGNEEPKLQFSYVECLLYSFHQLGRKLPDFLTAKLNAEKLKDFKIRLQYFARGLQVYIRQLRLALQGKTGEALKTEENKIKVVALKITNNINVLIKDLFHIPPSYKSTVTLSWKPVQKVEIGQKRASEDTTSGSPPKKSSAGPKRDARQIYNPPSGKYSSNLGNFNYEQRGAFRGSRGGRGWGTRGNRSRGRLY
UniProt Q10567: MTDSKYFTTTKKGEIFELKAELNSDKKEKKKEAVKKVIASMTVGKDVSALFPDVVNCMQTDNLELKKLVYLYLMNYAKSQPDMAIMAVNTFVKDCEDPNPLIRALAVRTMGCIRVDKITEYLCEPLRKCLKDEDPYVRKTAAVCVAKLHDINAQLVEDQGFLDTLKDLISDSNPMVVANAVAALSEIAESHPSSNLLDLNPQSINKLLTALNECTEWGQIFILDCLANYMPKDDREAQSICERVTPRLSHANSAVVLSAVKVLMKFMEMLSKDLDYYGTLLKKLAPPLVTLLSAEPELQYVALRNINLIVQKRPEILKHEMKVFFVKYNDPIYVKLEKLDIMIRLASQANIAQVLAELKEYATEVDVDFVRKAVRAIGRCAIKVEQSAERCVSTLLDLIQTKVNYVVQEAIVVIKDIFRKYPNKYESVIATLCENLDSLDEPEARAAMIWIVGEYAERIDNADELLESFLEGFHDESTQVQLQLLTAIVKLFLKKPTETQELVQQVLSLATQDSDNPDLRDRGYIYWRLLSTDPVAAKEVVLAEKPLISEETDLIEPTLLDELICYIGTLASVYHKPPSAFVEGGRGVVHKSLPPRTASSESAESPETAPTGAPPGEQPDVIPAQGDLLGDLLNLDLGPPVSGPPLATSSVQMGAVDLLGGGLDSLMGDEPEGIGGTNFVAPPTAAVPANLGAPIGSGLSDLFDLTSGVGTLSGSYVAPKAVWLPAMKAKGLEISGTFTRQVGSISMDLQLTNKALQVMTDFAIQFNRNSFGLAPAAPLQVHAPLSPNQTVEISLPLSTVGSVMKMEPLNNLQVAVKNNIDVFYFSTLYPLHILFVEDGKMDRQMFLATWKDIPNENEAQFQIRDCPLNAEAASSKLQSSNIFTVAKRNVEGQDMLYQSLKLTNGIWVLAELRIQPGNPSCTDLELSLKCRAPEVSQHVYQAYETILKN
UniProt P08758: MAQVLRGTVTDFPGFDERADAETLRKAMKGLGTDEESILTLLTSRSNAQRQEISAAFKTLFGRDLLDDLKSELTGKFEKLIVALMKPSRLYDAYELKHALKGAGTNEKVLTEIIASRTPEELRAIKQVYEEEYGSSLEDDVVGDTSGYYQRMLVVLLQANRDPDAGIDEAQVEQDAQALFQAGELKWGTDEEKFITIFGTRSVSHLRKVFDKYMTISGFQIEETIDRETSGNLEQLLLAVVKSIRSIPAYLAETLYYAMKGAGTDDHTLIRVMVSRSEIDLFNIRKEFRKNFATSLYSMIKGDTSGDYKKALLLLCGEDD
UniProt P84085: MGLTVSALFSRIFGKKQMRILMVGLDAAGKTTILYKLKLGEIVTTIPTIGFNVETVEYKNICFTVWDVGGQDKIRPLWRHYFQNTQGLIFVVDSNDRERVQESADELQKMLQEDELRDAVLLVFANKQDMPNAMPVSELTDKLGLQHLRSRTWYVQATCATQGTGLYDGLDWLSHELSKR
UniProt P02654: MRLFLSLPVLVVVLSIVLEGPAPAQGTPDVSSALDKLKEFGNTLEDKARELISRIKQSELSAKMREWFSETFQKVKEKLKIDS
UniProt P61966: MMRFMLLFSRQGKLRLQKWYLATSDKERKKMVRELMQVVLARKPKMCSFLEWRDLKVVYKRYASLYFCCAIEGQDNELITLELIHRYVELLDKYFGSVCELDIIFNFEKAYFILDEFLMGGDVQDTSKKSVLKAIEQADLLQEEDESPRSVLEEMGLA
UniProt Q92688: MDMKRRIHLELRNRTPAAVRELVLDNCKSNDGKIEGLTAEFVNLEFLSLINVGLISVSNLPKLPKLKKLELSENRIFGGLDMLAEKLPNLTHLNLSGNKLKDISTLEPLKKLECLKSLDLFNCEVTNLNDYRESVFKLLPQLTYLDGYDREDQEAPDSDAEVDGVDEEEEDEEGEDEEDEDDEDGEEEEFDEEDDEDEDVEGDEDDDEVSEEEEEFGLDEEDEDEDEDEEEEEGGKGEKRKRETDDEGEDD

What follows are targets tested with c1ccc([C@@H]2C[C@H]2NC2CCNCC2)cc1 (assay: log2 fold change, soluble protein after heating vs DMSO (PISA); higher = thermal stabilisation; K562 cells, 10 uM, 30 min; active = over 0.2 and 3.5 SD of the protein, either way, in both replicates (recomputed)).
Method in brief: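 For each measurement, 10 μM compound was applied for 30 min to K562 cells at 2×10^6 cells/mL. Aliquots were heated for 3 min across 48°C-58°C, pooled, and extracted in PBS with 0.5% NP-40 at 4°C; the supernatant after 21,000xg for 90 min was soluble protein. This was quantified by TMTpro 16plex LC-MS/MS with channel sums equalised, and thermal stability was reported relative to control samples from duplicates, on a log2 fold-change scale.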
In the case of AP4E1 (UniProt Q9UPM8), the log2 fold change is reported as inactive: -0.18.
In the case of ANXA7 (UniProt P20073), the log2 fold change is reported as inactive: 0.
With AP1M1 (UniProt Q9BXS5) the log2 fold change was inactive: 0.011.
In the case of AP2A2 isoform 2 (UniProt O94973), the log2 fold change is reported as inactive: 0.028.
In the case of ARAF (UniProt P10398), the log2 fold change is reported as inactive: 0.027.
With ANO10 (UniProt Q9NW15) the log2 fold change was inactive: -0.022.
In the case of ARFGAP1 (UniProt Q8N6T3), the log2 fold change is reported as inactive: -0.034.
For ANTKMT (UniProt Q9BQD7), the log2 fold change was inactive: -0.127.
AP5M1 (UniProt Q9H0R1) was tested, and the log2 fold change was inactive: 0.124.
With AP2M1 (UniProt C9JTK4) the log2 fold change was inactive: -0.076.
In the case of ARHGAP17 (UniProt Q68EM7), the log2 fold change is reported as inactive: -0.155.
ANTXR2 isoform 4 (UniProt P58335) was tested, and the log2 fold change was inactive: 0.044.
With API5 isoform 2 (UniProt Q9BZZ5) the log2 fold change was inactive: -0.052.
With ANO6 isoform 2 (UniProt Q4KMQ2) the log2 fold change was inactive: 0.014.
In the case of AP1B1 (UniProt Q10567), the log2 fold change is reported as inactive: 0.001.
In the case of ANXA5 (UniProt P08758), the log2 fold change is reported as inactive: -0.022.
For ARF5 (UniProt P84085), the log2 fold change was inactive: -0.008.
With ARFGEF1 (UniProt Q9Y6D6) the log2 fold change was inactive: -0.061.
For APOC1 (UniProt P02654), the log2 fold change was inactive: 0.013.
AP1S1 (UniProt P61966) was tested, and the log2 fold change was inactive: -0.048.
ANP32B (UniProt Q92688) was tested, and the log2 fold change was inactive: -0.014.
For APOH (UniProt P02749), the log2 fold change was inactive: 0.199.
In the case of ANXA2 isoform 2 (UniProt P07355), the log2 fold change is reported as inactive: -0.044.
